Experimental data as given in ChEMBL document CHEMBL4316593 (Eur J Med Chem, 2019).
Further values from the same series stand in other lists.

Experiments:
Assay type in all cases: cell-based
Conditions in all cases: U-87MG ATCC
[1] = Inhibition of RTK/PI3K/AKT/mTOR signaling in human U87 cells assessed as down regulation of ANKRD1 gene expression at cytotoxic IC50 measured after 48 hrs relative to control
[2] = Inhibition of RTK/PI3K/AKT/mTOR signaling in human U87 cells assessed as down regulation of FUS gene expression at cytotoxic IC50 measured after 48 hrs relative to control
[3] = Inhibition of RTK/PI3K/AKT/mTOR signaling in human U87 cells assessed as down regulation of USP38 gene expression at cytotoxic IC50 measured after 48 hrs relative to control
[4] = Inhibition of RTK/PI3K/AKT/mTOR signaling in human U87 cells assessed as down regulation of HMGN3 gene expression at cytotoxic IC50 measured after 48 hrs relative to control
[5] = Inhibition of RTK/PI3K/AKT/mTOR signaling in human U87 cells assessed as down regulation of UBL5 gene expression at cytotoxic IC50 measured after 48 hrs relative to control
[6] = Inhibition of RTK/PI3K/AKT/mTOR signaling in human U87 cells assessed as down regulation of CLTC gene expression at cytotoxic IC50 measured after 48 hrs relative to control
[7] = Inhibition of RTK/PI3K/AKT/mTOR signaling in human U87 cells assessed as down regulation of RAE1 gene expression at cytotoxic IC50 measured after 48 hrs relative to control
[8] = Inhibition of RTK/PI3K/AKT/mTOR signaling in human U87 cells assessed as down regulation of CEP55 gene expression at cytotoxic IC50 measured after 48 hrs relative to control
[9] = Inhibition of RTK/PI3K/AKT/mTOR signaling in human U87 cells assessed as down regulation of MCM3 gene expression at cytotoxic IC50 measured after 48 hrs relative to control
[10] = Inhibition of RTK assessed as Inhibition of RTK/PI3K/AKT/mTOR signaling in human U87 cells assessed as down regulation of MAPK8 gene expression at cytotoxic IC50 measured after 48 hrs relative to control
[11] = Inhibition of RTK/PI3K/AKT/mTOR signaling in human U87 cells assessed as down regulation of ATMIN gene expression at cytotoxic IC50 measured after 48 hrs relative to control
[12] = Inhibition of RTK/PI3K/AKT/mTOR signaling in human U87 cells assessed as down regulation of SAP18 gene expression at cytotoxic IC50 measured after 48 hrs relative to control
[13] = Inhibition of RTK/PI3K/AKT/mTOR signaling in human U87 cells assessed as down regulation of SHTN1 gene expression at cytotoxic IC50 measured after 48 hrs relative to control
[14] = Inhibition of RTK/PI3K/AKT/mTOR signaling in human U87 cells assessed as down regulation of SEC61B gene expression at cytotoxic IC50 measured after 48 hrs relative to control
[15] = Inhibition of RTK/PI3K/AKT/mTOR signaling in human U87 cells assessed as down regulation of DIAPH1 gene expression at cytotoxic IC50 measured after 48 hrs relative to control
[16] = Inhibition of RTK/PI3K/AKT/mTOR signaling in human U87 cells assessed as up regulation of MICALCL gene expression at cytotoxic IC50 measured after 48 hrs relative to control
[17] = Inhibition of RTK/PI3K/AKT/mTOR signaling in human U87 cells assessed as up regulation of S100A4 gene expression at cytotoxic IC50 measured after 48 hrs relative to control
[18] = Inhibition of RTK/PI3K/AKT/mTOR signaling in human U87 cells assessed as up regulation of ERRFI1 gene expression at cytotoxic IC50 measured after 48 hrs relative to control
[19] = Inhibition of RTK/PI3K/AKT/mTOR signaling in human U87 cells assessed as up regulation of SLC19A1 gene expression at cytotoxic IC50 measured after 48 hrs relative to control
[20] = Inhibition of RTK/PI3K/AKT/mTOR signaling in human U87 cells assessed as up regulation of CHRD gene expression at cytotoxic IC50 measured after 48 hrs relative to control
[21] = Inhibition of RTK/PI3K/AKT/mTOR signaling in human U87 cells assessed as up regulation of protein tyrosine phosphatase, receptor type F gene expression at cytotoxic IC50 measured after 48 hrs relative to control
[22] = Inhibition of RTK/PI3K/AKT/mTOR signaling in human U87 cells assessed as up regulation of antizyme inhibitor 2 gene expression at cytotoxic IC50 measured after 48 hrs relative to control
[23] = Inhibition of RTK/PI3K/AKT/mTOR signaling in human U87 cells assessed as up regulation of tsukushi, small leucine rich proteoglycan gene expression at cytotoxic IC50 measured after 48 hrs relative to control
[24] = Inhibition of RTK/PI3K/AKT/mTOR signaling in human U87 cells assessed as up regulation of wntless Wnt ligand secretion mediator gene expression at cytotoxic IC50 measured after 48 hrs relative to control
[25] = Inhibition of RTK/PI3K/AKT/mTOR signaling in human U87 cells assessed as up regulation of protein phosphatase 1 regulatory subunit 3B gene expression at cytotoxic IC50 measured after 48 hrs relative to control
[26] = Inhibition of RTK/PI3K/AKT/mTOR signaling in human U87 cells assessed as up regulation of gap junction protein gamma 1 gene expression at cytotoxic IC50 measured after 48 hrs relative to control
[27] = Inhibition of RTK/PI3K/AKT/mTOR signaling in human U87 cells assessed as up regulation of erb-b2 receptor tyrosine kinase 3 gene expression at cytotoxic IC50 measured after 48 hrs relative to control
[28] = Inhibition of RTK/PI3K/AKT/mTOR signaling in human U87 cells assessed as up regulation of prostaglandin E synthase 2 gene expression at cytotoxic IC50 measured after 48 hrs relative to control
[29] = Inhibition of RTK/PI3K/AKT/mTOR signaling in human U87 cells assessed as up regulation of ASXL1 gene expression at cytotoxic IC50 measured after 48 hrs relative to control
[30] = Inhibition of RTK/PI3K/AKT/mTOR signaling in human U87 cells assessed as up regulation of IVD gene expression at cytotoxic IC50 measured after 48 hrs relative to control
[31] = Inhibition of RTK/PI3K/AKT/mTOR signaling in human U87 cells assessed as up regulation of HNRNPA1 gene expression at cytotoxic IC50 measured after 48 hrs relative to control
[32] = Inhibition of RTK/PI3K/AKT/mTOR signaling in human U87 cells assessed as up regulation of PVR gene expression at cytotoxic IC50 measured after 48 hrs relative to control

CC(=O)C(=NNc1ccccc1C#N)C(C)=O
log2FC [1]: -4.58
log2FC [2]: -1.52
log2FC [3]: -1.27
log2FC [4]: -1.02
log2FC [5]: -0.866
log2FC [6]: -0.753
log2FC [7]: -0.729
log2FC [8]: -0.725
log2FC [9]: -0.685
log2FC [10]: -0.753
log2FC [11]: -0.58
log2FC [12]: -0.525
log2FC [13]: -0.524
log2FC [14]: -0.495
log2FC [15]: -0.364
log2FC [16]: 2.61
log2FC [17]: 2.36
log2FC [18]: 2.24
log2FC [19]: 2.21
log2FC [20]: 1.63
log2FC [21]: 1.4
log2FC [22]: 1.4
log2FC [23]: 1.38
log2FC [24]: 1.2
log2FC [25]: 1.08
log2FC [26]: 0.985
log2FC [27]: 0.699
log2FC [28]: 0.699
log2FC [29]: 0.612
log2FC [30]: 0.581
log2FC [31]: 0.477
log2FC [32]: 0.442
